Test results from PubChem BioAssay AID1439 (NMMLSC, 2008).
Among all 220,000 compounds or so, about 770 (0.35%) were called active. Inconclusive means that the source gave no clear call. Such entries were picked first, then a sample of the others. Cut-off read from the data, not from the text of the source: active = binding response below about 49% or above about 150%; inconclusive = no clear call, values can overlap the other calls; inactive = in between.

By UniProt entry, the sequences of proteins in these tests, tags left out.
UniProt P09471, whole entry, looked up: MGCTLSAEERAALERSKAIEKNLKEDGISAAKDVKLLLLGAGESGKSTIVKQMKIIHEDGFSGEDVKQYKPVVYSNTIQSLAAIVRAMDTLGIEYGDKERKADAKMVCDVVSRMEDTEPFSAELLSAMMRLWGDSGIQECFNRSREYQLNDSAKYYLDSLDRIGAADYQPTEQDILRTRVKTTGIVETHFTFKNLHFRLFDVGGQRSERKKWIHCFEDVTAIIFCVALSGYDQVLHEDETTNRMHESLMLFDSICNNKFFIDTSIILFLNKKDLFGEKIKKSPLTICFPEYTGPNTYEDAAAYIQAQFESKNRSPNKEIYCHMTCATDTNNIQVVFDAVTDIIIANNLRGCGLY

The compounds below were run against Guanine nucleotide-binding protein G(o) subunit alpha (Homo sapiens) (UniProt P09471) (assay: RGS7-Galphao binding modulators, primary screen, biochemical, multiplexed bead flow cytometry (AID 1439;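 note: fluorescent Galphao held in activated GDP-AlF4 state binding bead-coupled RGS7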)). Conditions: at 10 µM, actives lie on both sides.

Row | Compound | binding response (% of control)
1 | COC(C[C@H](O)C[C@@H](O)[C@@H](C)OCc1ccccc1)OC | inconclusive: 109%
2 | Cc1ccc(S(=O)(=O)Oc2cc(N)c3c(n2)CCC3)cc1 | inconclusive: -107%
3 | Cc1ccccc1-n1c2nc(=O)n(C)c(=O)c-2cc2ccccc21 | inconclusive: 101%
4 | Cc1cccc(NC(=O)Cn2nc([N+](=O)[O-])c(Br)c2C)n1 | inconclusive: 118%
5 | O=C(/C=C/c1cc(Br)ccc1O)c1ccco1 | inconclusive: 10.9%
6 | C/C(=N\NC(=O)CSCc1ccc(Cl)cc1)c1ccc2c(c1)OCCO2 | inactive: 101%
7 | O=C(CSc1nnc(-c2ccccc2)n1-c1ccc(Cl)cc1)N/N=C/c1ccccc1C(=O)O | inconclusive: 120%
8 | O=C(NCc1nc2ccccc2[nH]1)c1ccccc1F | inconclusive: 105%
9 | CCCCC1=CC2=CC(=O)C(C)(OC(=O)CC)C(=O)C2=CN1CCc1c[nH]c2ccccc12 (stereo unspecified) | inconclusive: 87.8%
10 | Cc1c(Cl)cccc1NC(=O)N1CCCN(c2nc(-c3ccccc3)ns2)CC1 | inconclusive: 112%
11 | O=C(NCCc1ccccc1)C1CCC(CNS(=O)(=O)c2cccc3cccnc23)CC1 (stereo unspecified) | inconclusive: 105%
12 | O=C(Nc1ccccc1F)c1ccc(COc2ccc(Cl)cc2Cl)o1 | inactive: 101%
13 | COc1cc(-c2cc(C(=O)Nc3ccc(N4CCOCC4)cc3)c3ccccc3n2)cc(OC)c1OC | inconclusive: 77.1%
14 | COc1ccccc1NC(=O)c1ccc2c(c1)nnn2C | inactive: 103%
15 | Cc1c(Cl)cccc1NC(=S)N(CCN(C)C)C(C)c1ccco1 (stereo unspecified) | inconclusive: 113%
16 | CN(C)S(=O)(=O)c1ccc(N=Cc2c(C(F)(F)F)[nH]n(C)c2=O)cc1 | inconclusive: 99.9%
17 | O=S(=O)(CCN1CCSCC1)c1ccc(Cl)cc1 | inconclusive: 961%
18 | O=C1NC(=S)N/C1=C\c1cccnc1 | inconclusive: 91%
19 | Cc1cccc(Cl)c1NNC(=O)Nc1c([N+](=O)[O-])c(C)nn1C | inconclusive: 90%
20 | O=C(N/N=C/c1ccc(N2CCOCC2)cc1)C1CC1 | inactive: 100%
21 | COC(=O)C[N+](C)(C)CC#Cc1ccccc1 | inactive: 97.9%
22 | CC(C)c1nn2c(N)c(/C=C3\C=Nc4ccccc43)c(=O)nc2s1 | inconclusive: 114%
23 | O=C(O)C1C2C=CC(C2)C1C(=O)NCCc1cccc(Cl)c1 (stereo unspecified) | inactive: 106%

Of the compounds above, 2 contain bromine.
Row | Compound | binding response (% of control)
4 | Cc1cccc(NC(=O)Cn2nc([N+](=O)[O-])c(Br)c2C)n1 | inconclusive: 118%
5 | O=C(/C=C/c1cc(Br)ccc1O)c1ccco1 | inconclusive: 10.9%

Ordered by length of the SMILES (high to low): some entries from above
Row | Compound | binding response (% of control)
10 | Cc1c(Cl)cccc1NC(=O)N1CCCN(c2nc(-c3ccccc3)ns2)CC1 | inconclusive: 112%
15 | Cc1c(Cl)cccc1NC(=S)N(CCN(C)C)C(C)c1ccco1 (stereo unspecified) | inconclusive: 113%
18 | O=C1NC(=S)N/C1=C\c1cccnc1 | inconclusive: 91%

Next compounds.

Row | Compound | binding response (% of control)
24 | Cc1cc(C)n(CC(=O)n2c3ccccc3c3ccccc32)n1 | inactive: 95%
25 | CCOC(=O)NNC(=O)NCCCCCCNC(=O)NNC(=O)OCC | inconclusive: 107%
26 | COc1cc(S(=O)(=O)N(Cc2ccccc2)CC2CCCO2)ccc1-n1cnnn1 (stereo unspecified) | inactive: 102%
27 | Cn1cnc([N+](=O)[O-])c1Sc1ncnc2nc[nH]c12 | inconclusive: 82.1%
28 | O=C(CSc1cccc[n+]1[O-])Nc1cc([N+](=O)[O-])ccc1Cl | inconclusive: 114%
29 | O=C(N/N=C1\CCCc2ccccc21)c1cccc(Br)c1 | inactive: 100%
30 | CN(C)c1cccc(C(=O)OCCNC(=O)c2cccc(S(=O)(=O)N3CCOCC3)c2)c1 | inconclusive: 115%
31 | N#Cc1ccc(NC(=S)NCCN2CCOCC2)cc1 | inactive: 91%
32 | C=CCON/C(CCC)=C1\C(=O)CC(C)(C)CC1=NC | inconclusive: 75.8%
33 | NS(=O)(=O)c1ccccc1 | inconclusive: 91.6%
34 | Clc1cccc2c1CCN(Cc1nc(-c3cnccn3)no1)C2 | inconclusive: 95.4%
35 | Cc1cc(-c2ccccc2)nc2c(Br)c(=O)[nH]n12 | inconclusive: 98.5%
36 | O=C(O)CSCC(=O)Nc1ccccn1 | inconclusive: 96.9%
37 | COC(=O)c1ccccc1NC(=O)Nc1ccc(Cl)cn1 | inconclusive: 109%
38 | COC(=O)c1cc(NC(=O)c2ccco2)ccc1N1CCOCC1 | inconclusive: 81.6%
39 | Cc1cccn2c(CN3CCCC(c4ccccc4)C3)c(C(=O)N3CCOCC3)nc12 (stereo unspecified) | inactive: 85%
40 | O=C(O)c1cccc(N2C(=O)c3ccc4c5c(ccc(c35)C2=O)C(=O)N(c2cccc(C(=O)O)c2)C4=O)c1 | inconclusive: 92.1%
41 | COC(=O)c1nn(-c2ccccc2)c(Sc2ccc(Br)cc2)c1/C=N/O | inactive: 101%
42 | COC(=O)c1cccc(CN2C(=O)SC(Nc3ccc(C)cc3)C2=O)c1 (stereo unspecified) | inconclusive: 80.4%
43 | O=C(CN1CCN(C/C=C/c2ccccc2)CC1)NC(=O)NC1CCCCC1 | inactive: 99.2%
44 | COc1ccc(OCC(=O)Nc2ccc3c(c2)nc(CN2CCN(C(C)=O)CC2)n3C)cc1 | inconclusive: 102%
45 | COc1ccccc1-n1c(=O)c(C#N)c(-c2ccc([N+](=O)[O-])cc2)c2cc(C(=O)c3ccccc3O)cnc21 | inconclusive: 73%
46 | CC(C)(C)c1ccc(S(=O)(=O)N2CCC(CO)(CC3CCCCO3)CC2)cc1 (stereo unspecified) | inactive: 101%

Row | Compound | binding response (% of control)
47 | COc1ccc(/C=N/N2CCOCC2)cc1COc1ccc(Cl)cc1 | inactive: 98.8%
48 | CCN(CC(=O)NCc1ccc(Cl)cc1)S(=O)(=O)c1ccc(NC(C)=O)cc1 | inconclusive: 116%
49 | Cc1ccc(-c2cc(Cc3ccccc3)c(=O)[nH]n2)cc1 | inconclusive: 109%
50 | CC(=O)N(/N=C/c1ccc([N+](=O)[O-])o1)c1nc2ccccc2c(=O)n1-c1ccccc1 | inconclusive: 93%
51 | Cc1ccc(C(=O)NNc2c3ccccc3nc3ccccc23)cc1 | inconclusive: 57.5%
52 | NC(N)=NC1=NC(=O)C(Cc2ccccc2Cl)S1 (stereo unspecified) | inconclusive: 72%
53 | CC1C[N+](=C2C=C(N3CCOCC3)CC(C)(C)C2)CC(C)O1 (stereo unspecified) | inconclusive: 83.4%
54 | CCOc1ccc2nc(NC(=O)Cn3[nH]c(=O)c4ccccc4c3=O)sc2c1 | inconclusive: 245%
55 | O=C(O)/C=C/C(=O)N1CCN(S(=O)(=O)c2cccc(C(F)(F)F)c2)CC1 | inactive: 98.3%
56 | COc1ccc(NC(=O)CCS(=O)(=O)c2ccccc2Cl)cc1S(=O)(=O)Nc1ccc(Cl)cc1 | inconclusive: 92.6%
57 | CC1=Nc2cc([N+](=O)[O-])ccc2NC(C)(C)C1 | inconclusive: 87.8%
58 | O=C1OCC2OC(O)C(O)C(O)C2OC(=O)c2cc(O)c(O)c(O)c2-c2c(O)c(O)c3oc(=O)c4c(c(O)c(O)c5oc(=O)c2c3c54)-c2c1cc(O)c(O)c2O (stereo unspecified) | inconclusive: -56.9%
59 | Cc1ccc(/C=C2\SC(=S)N(CCC(=O)NNC(=O)c3ccncc3)C2=O)cc1 | inconclusive: 87.4%
60 | O=C(NC(=S)NNC(=O)c1ccccc1F)c1cccnc1 | inconclusive: 72.6%
61 | O=S(=O)(NCC(O)c1ccccc1)c1ccc(-c2ccccn2)s1 (stereo unspecified) | inconclusive: 117%
62 | CC12CCC(C(=O)Nc3cccc(Cl)c3)(C(Br)C1=O)C2(C)C (stereo unspecified) | inactive: 109%
63 | CC1(C)Cc2c(sc3nc4n(-c5ccccc5)cnn4c(=O)c23)CO1 | inconclusive: 168%
64 | S=C1NCN(C2CCCCC2)CN1CCc1ccccc1 | inconclusive: 23.5%
65 | COc1ccc(C(=O)N2CCNC(=O)C2CC(=O)Nc2ccc(C)cc2)cc1 (stereo unspecified) | inconclusive: 104%
66 | S=c1[nH]c(-c2ccccc2)cn1/N=C/c1ccccc1Br | inconclusive: 82.7%
67 | N#C/C(=C\c1ccc([N+](=O)[O-])o1)c1nc2ccccc2[nH]1 | inactive: 95.9%
68 | O=C(Nc1ccccc1F)NC1CCN(Cc2nnnn2Cc2ccc(F)cc2)CC1 | inactive: 98.7%
69 | C=CCSc1nnc(NC(=O)c2cccc(S(=O)(=O)N(C)c3ccccc3)c2)s1 | inactive: 104%

Row | Compound | binding response (% of control)
70 | CN(C)c1oc(-c2ccccc2Cl)nc1P(=O)(c1ccccc1)c1ccccc1 | inactive: 105%
71 | COc1cc(NC(=O)C(Cc2ccccc2)n2cccc2)cc(OC)c1 (stereo unspecified) | inconclusive: 97.2%
72 | O=C(Cc1ccccc1)c1ccc(Cl)cc1 | inconclusive: -248%
73 | Cc1ccc(/C(O)=C/c2nc3ccccc3oc2=O)cc1 | inconclusive: 137%
74 | Cc1ccnc(NC(=O)Cn2cc([N+](=O)[O-])cn2)c1 | inactive: 101%
75 | C/C(=N/N1CCN(c2ccccn2)CC1)c1cccc([N+](=O)[O-])c1 | inactive: 102%
76 | Cc1csc2c(N3CCN(S(=O)(=O)c4ccc(Cl)cc4)CC3)ncnc12 | inconclusive: 136%
77 | C/C(=N\NC(=O)c1ccccc1)c1ccccc1F | inconclusive: 79.5%
78 | CC(=O)Nc1ccc2c(c1)CCCC2 | inconclusive: 109%
79 | CC(=O)Nc1nc(N(C)C)nc(N(C)C)n1 | active: -0.2%
80 | O=C(Nc1ccc(Cc2ccncc2)cc1)c1ccc(S(=O)(=O)N2CCCC2)cc1 | inactive: 97.9%
81 | CNCCCNC(=O)c1ccc(/C=N/O)nc1 | inactive: 102%
82 | CCCNC(=O)C1CC(c2ccc(C(F)(F)F)cc2)=NO1 (stereo unspecified) | inconclusive: 111%
83 | COc1ccc(/C=N/NC(=O)c2nc(-c3ccccc3)n(-c3ccccc3)n2)c(O)c1 | inactive: 97.8%
84 | Nc1ccc(Oc2ccc(F)cc2)nc1 | inconclusive: 105%
85 | COc1ccccc1NC1=NC(CO)(CO)CS1 | inconclusive: 83.1%
86 | CN1C(=O)C(CC(=O)O)S/C1=N\N=C\c1ccc(O)cc1O (stereo unspecified) | inconclusive: 161%
87 | CN(C(=O)COC(=O)c1ccc([N+](=O)[O-])cc1)c1ccccc1 | inactive: 103%
88 | O=C(CSc1nc2ccccc2s1)Nc1ccc(Cl)c(C(=O)O)c1 | inconclusive: 84.3%
89 | O=C(CN1CCN(Cc2ccccc2)CC1)N/N=C/c1cccs1 | inconclusive: 146%
90 | Cc1ccc(CNC(=O)Cn2cccc2C(=O)c2ccccc2C)cc1 | inconclusive: 108%
91 | Cc1noc2ncnc(Oc3ccccc3Cl)c12 | inconclusive: 74.6%
